{
  "sequences": {"note": "Sequences of proteins named here, by UniProt entry; tags and fusion partners are left off. A change or cut given only in a name is not applied to a line headed by its entry.", "UniProt Q388W2": "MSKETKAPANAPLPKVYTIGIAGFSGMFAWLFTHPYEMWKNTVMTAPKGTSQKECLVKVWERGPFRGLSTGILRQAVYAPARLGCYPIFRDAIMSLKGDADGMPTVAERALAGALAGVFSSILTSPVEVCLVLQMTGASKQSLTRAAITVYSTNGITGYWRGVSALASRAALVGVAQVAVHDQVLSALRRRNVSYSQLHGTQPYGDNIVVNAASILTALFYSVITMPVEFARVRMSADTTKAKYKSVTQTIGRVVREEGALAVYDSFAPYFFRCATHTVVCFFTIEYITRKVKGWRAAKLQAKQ", "UniProt Q38DQ3": "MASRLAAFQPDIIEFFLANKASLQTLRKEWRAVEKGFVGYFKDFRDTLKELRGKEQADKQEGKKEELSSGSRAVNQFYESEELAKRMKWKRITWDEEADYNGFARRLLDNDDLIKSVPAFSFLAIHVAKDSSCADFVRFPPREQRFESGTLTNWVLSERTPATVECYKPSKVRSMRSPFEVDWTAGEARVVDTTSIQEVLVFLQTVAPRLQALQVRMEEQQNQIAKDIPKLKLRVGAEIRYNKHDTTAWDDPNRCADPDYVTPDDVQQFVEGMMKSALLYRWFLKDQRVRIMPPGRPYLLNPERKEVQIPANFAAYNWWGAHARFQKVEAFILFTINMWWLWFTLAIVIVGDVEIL", "UniProt Q389I9": "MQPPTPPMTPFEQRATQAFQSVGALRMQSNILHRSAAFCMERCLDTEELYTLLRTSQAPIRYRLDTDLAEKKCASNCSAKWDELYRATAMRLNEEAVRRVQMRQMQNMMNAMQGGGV", "UniProt Q585K7": "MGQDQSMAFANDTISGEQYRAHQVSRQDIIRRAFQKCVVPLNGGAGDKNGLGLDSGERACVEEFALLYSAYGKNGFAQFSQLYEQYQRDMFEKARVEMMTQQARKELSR", "UniProt Q38ED9": "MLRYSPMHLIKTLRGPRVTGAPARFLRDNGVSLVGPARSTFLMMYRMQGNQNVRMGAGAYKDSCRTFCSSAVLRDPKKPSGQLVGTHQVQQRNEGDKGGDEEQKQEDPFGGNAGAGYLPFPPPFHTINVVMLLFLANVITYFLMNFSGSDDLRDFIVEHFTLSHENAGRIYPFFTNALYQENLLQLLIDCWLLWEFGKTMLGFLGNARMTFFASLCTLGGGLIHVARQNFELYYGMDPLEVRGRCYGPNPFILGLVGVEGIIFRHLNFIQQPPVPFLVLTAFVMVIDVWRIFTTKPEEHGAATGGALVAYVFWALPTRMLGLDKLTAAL", "UniProt Q581D5": "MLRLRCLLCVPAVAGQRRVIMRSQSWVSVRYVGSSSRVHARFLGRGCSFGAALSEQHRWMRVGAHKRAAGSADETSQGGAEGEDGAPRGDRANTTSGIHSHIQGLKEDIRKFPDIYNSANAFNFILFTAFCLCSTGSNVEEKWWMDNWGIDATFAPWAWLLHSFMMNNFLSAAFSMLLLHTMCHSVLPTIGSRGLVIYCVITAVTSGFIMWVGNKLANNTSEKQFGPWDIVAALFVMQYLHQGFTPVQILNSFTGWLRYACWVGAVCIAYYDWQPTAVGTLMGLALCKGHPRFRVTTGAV", "UniProt Q57X55": "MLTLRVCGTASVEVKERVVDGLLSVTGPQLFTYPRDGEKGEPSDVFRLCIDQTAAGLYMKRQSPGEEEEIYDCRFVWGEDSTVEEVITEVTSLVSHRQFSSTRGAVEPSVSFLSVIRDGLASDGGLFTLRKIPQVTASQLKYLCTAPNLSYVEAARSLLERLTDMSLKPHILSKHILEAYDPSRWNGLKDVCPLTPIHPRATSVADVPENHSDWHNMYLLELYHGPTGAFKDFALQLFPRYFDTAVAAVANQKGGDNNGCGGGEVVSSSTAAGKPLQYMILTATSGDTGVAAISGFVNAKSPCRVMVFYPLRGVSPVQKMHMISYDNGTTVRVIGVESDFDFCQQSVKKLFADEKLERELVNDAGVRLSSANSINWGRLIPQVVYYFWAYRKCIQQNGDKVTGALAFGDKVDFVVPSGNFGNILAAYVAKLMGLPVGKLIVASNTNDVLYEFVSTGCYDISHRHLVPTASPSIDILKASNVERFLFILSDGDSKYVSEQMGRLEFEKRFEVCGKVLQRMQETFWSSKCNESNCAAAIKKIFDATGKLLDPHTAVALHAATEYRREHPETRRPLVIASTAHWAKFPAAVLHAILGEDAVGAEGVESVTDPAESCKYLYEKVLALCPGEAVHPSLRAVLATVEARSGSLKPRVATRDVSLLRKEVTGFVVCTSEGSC"},
  "source": "paper PMC5187411",
  "key": {"[1]": {"target": "C-terminally myc-tagged MCP12 lacking the first module (T. brucei) (UniProt Q388W2)", "experiment": "affinity purification with mass spectrometry; SILAC-IP on anti-myc resin from digitonin-solubilized mitochondrial extracts of differentially labelled cells expressing MCP12-ΔI against MCP12-FL; cutoff fivefold; three replicates"}, "[2]": {"target": "C-terminally triple HA-tagged TbTim42 (T. brucei) (UniProt Q38DQ3)", "experiment": "affinity purification with mass spectrometry; SILAC-IP of tagged TbTim17, TbTim42 or TbTim13 on anti-c-myc or anti-HA resin; induced against uninduced cells mixed 1:1; crude mitochondrial fractions solubilized in 1% digitonin, 20 mM Tris-HCl pH 7.4, 0.1 mM EDTA, 100 mM NaCl, 10% glycerol, 4 °C; three replicates"}, "[3]": {"target": "C-terminally triple HA-tagged TbTim13 (T. brucei) (UniProt Q389I9)", "experiment": "affinity purification with mass spectrometry; SILAC-IP of tagged TbTim17, TbTim42 or TbTim13 on anti-c-myc or anti-HA resin; induced against uninduced cells mixed 1:1; crude mitochondrial fractions solubilized in 1% digitonin, 20 mM Tris-HCl pH 7.4, 0.1 mM EDTA, 100 mM NaCl, 10% glycerol, 4 °C; three replicates"}},
  "note": "No constants are given. Whether binding was seen depends on the method and setting. In cells and extracts the contact can be indirect. A yes stands for co-enrichment or nearness to the bait. Other partners may have been found. For part of these data: No binding means not detected with the bait.",
  "data": [
    {"substance": "Tb927.4.3430 (from UniProt Q585K7)", "values": [
      {"measurement": "binding", "setting": "[1]", "value": "binds"}
    ]},
    {"substance": "TbTim13 (from UniProt Q389I9)", "values": [
      {"measurement": "binding", "setting": "[1]", "value": "binds"},
      {"measurement": "binding", "setting": "[2]", "value": "binds"}
    ]},
    {"substance": "TbTim42 (from UniProt Q38DQ3)", "values": [
      {"measurement": "binding", "setting": "[1]", "value": "binds"},
      {"measurement": "binding", "setting": "[3]", "value": "binds"}
    ]},
    {"substance": "TimRhom I (from UniProt Q38ED9)", "values": [
      {"measurement": "binding", "setting": "[1]", "value": "no binding"},
      {"measurement": "binding", "setting": "[3]", "value": "binds"},
      {"measurement": "binding", "setting": "[2]", "value": "binds"}
    ]},
    {"substance": "TimRhom II (from UniProt Q581D5)", "values": [
      {"measurement": "binding", "setting": "[1]", "value": "no binding"},
      {"measurement": "binding", "setting": "[3]", "value": "binds"},
      {"measurement": "binding", "setting": "[2]", "value": "binds"}
    ]},
    {"substance": "putative threonine synthase (Tb927.7.4390) (from UniProt Q57X55)", "values": [
      {"measurement": "binding", "setting": "[1]", "value": "binds"}
    ]}
  ]
}
